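Plate-reader measure of the Venus reporter marking one vaccinia stage in infected cells (the cell line is not named here); read time unknown.
The test concentration is not given here.
Percent change in Venus reporter signal; lower (more negative) values mean stronger inhibition of that viral stage.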

Values are in %.
The controls that fix the scale are not given here.
Common to all entries: measured here: Venus reporter, other viral stage.
This is a side read-out of the assay, for part of the compounds, not drawn at random.

| # | SMILES | activity change (Venus) (%) |
|---|---|---|
| 1 | `C[C@@H]1CCCCO[C@H](CN(C)C(=O)NC2CCCCC2)[C@H](C)CN([C@@H](C)CO)C(=O)c2cc(NC(=O)NC3CCCCC3)ccc2O1` | -35.44 |
| 2 | `CC(C)CC#Cc1ccc2c(c1)O[C@@H](CN(C)C(=O)Nc1ccccc1)[C@H](C)CN([C@H](C)CO)S2(=O)=O` | -33.09 |
| 3 | `COc1ccc(-c2ccc3c(c2)[C@@H]2[C@@H](CCN2C(=O)c2cccc(F)c2)[C@H](CO)N3C)cc1` | -35.33 |
| 4 | `CN(C)C(=O)c1ccc(-c2ccc3c(c2)[C@@H]2[C@@H](CCN2C(=O)c2ccc(F)cc2)[C@H](CO)N3C)cc1` | -38.26 |
| 5 | `COc1ccc(NC(=O)N(C)C[C@@H]2Oc3cc(C#CCC(C)C)ccc3S(=O)(=O)N([C@@H](C)CO)C[C@H]2C)cc1` | -35.61 |
| 6 | `C[C@@H]1CN([C@@H](C)CO)C(=O)c2cc(C#CCc3ccccc3)cnc2O[C@H]1CN(C)Cc1cccc(F)c1` | -40.39 |
| 7 | `C[C@H](CO)N1C[C@H](C)[C@H](CN(C)Cc2ccncc2)OCCCC[C@H](C)Oc2ccc(NC(=O)Nc3ccc(C(F)(F)F)cc3)cc2C1=O` | -37.32 |
| 8 | `C[C@@H]1CN([C@@H](C)CO)C(=O)Cc2cc(NC(=O)Nc3ccc(C(F)(F)F)cc3)ccc2O[C@@H]1CN(C)Cc1ccncc1` | -36.61 |
| 9 | `Cc1ccc(S(=O)(=O)Nc2ccc3c(c2)C(=O)N([C@H](C)CO)C[C@@H](C)[C@H](CN(C)S(=O)(=O)c2ccc(F)cc2)OCCCC[C@H](C)O3)cc1` | -39.51 |
| 10 | `CCCN(C)C[C@@H]1Oc2ncc(C#Cc3ccccc3OC)cc2C(=O)N([C@H](C)CO)C[C@@H]1C` | -32.98 |
| 11 | `CC(C)NC(=O)N(C)C[C@@H]1Oc2c(NC(=O)Nc3ccc(C(F)(F)F)cc3)cccc2C(=O)N([C@@H](C)CO)C[C@H]1C` | -20.5 |
| 12 | `O=C(C[C@H]1C[C@@H]2c3cc(NS(=O)(=O)c4ccc(F)cc4)ccc3O[C@@H]2[C@H](CO)O1)NCc1ccc(Oc2ccccc2)cc1` | -41.53 |
| 13 | `C[C@H]1CN([C@@H](C)CO)C(=O)c2cccc(NC(=O)Nc3ccc(C(F)(F)F)cc3)c2O[C@H]1CN(C)Cc1ccc2c(c1)OCO2` | -58.86 |
| 14 | `COc1cccc(C(=O)Nc2ccc3c(c2)C(=O)N(C)C[C@@H](OC)[C@@H](C)CN(C(=O)C2CCCC2)[C@@H](C)CO3)c1` | -34.85 |
| 15 | `Cc1noc(C)c1S(=O)(=O)N(C)C[C@@H]1OCCCC[C@@H](C)Oc2ccc(NC(=O)NC3CCCCC3)cc2C(=O)N([C@H](C)CO)C[C@H]1C` | -33.63 |
| 16 | `C[C@@H]1CN([C@@H](C)CO)S(=O)(=O)c2ccc(C#Cc3ccc(F)cc3)cc2O[C@H]1CN(C)C(=O)CN(C)C` | -41.72 |
| 17 | `COc1ccc(NC(=O)N(C)C[C@H]2Oc3cc(C#CCC(C)C)ccc3S(=O)(=O)N([C@H](C)CO)C[C@H]2C)cc1` | -66.3 |
| 18 | `O=S(=O)(Cc1ccccc1)N1CCCCN2[C@H](CO)[C@H](c3ccc(-c4ccc(F)cc4)cc3)[C@@H]2C1` | -49.22 |
| 19 | `COc1ccc(S(=O)(=O)Nc2ccc3c(c2)C(=O)N([C@@H](C)CO)C[C@@H](C)[C@@H](CN(C)Cc2ccc(Cl)c(Cl)c2)OCCCC[C@@H](C)O3)cc1` | -68.19 |
| 20 | `C[C@H]1CN([C@@H](C)CO)S(=O)(=O)c2ccc(/C=C/c3ccccc3)cc2O[C@H]1CN(C)C(=O)NC1CCCCC1` | -60.32 |
| 21 | `CN1c2ccc(-c3cccc(C#N)c3)cc2[C@@H]2[C@@H](CCN2C(=O)C2CCCC2)[C@@H]1CO` | -69.55 |
| 22 | `COc1ccc(NC(=O)Nc2ccc3c(c2)C(=O)N([C@@H](C)CO)C[C@@H](C)[C@@H](CN(C)Cc2ccccc2)OCCCC[C@@H](C)O3)cc1` | -66.64 |
| 23 | `C[C@@H]1CN([C@@H](C)CO)C(=O)c2c(c3ccccc3n2C)-c2ccccc2CO[C@@H]1CN(C)Cc1cccc2c1OCCCO2` | -69.52 |
| 24 | `CN(C)CC(=O)N[C@@H]1C[C@@H]2O[C@@H](CO)CC[C@@H]2O[C@@H]1CCc1ccc(C#Cc2ccccc2)cc1` | -70.89 |
| 25 | `O=C(Cc1ccccc1)N1CCCCN2[C@H](C1)[C@H](c1ccc(C#Cc3ccccc3)cc1)[C@@H]2CO` | -54.86 |
| 26 | `C[C@@H]1CCCCO[C@H](CN(C)Cc2ccc(Cl)c(Cl)c2)[C@H](C)CN([C@@H](C)CO)C(=O)c2cc(NC(=O)CCC(F)(F)F)ccc2O1` | -73.33 |
| 27 | `C[C@@H]1CN([C@@H](C)CO)C(=O)Cc2cc(NS(=O)(=O)c3cccs3)ccc2O[C@@H]1CN(C)Cc1ccccc1` | -39.36 |
| 28 | `CC(C)COC(=O)N(C)C[C@H]1OCc2ccccc2-c2c(n(C)c3ccccc23)C(=O)N([C@@H](C)CO)C[C@@H]1C` | -37.69 |
| 29 | `C[C@H]1CCCCO[C@H](CN(C)CC2CCCCC2)[C@@H](C)CN([C@@H](C)CO)C(=O)c2cc(NC(=O)Cc3ccccc3)ccc2O1` | -57.75 |
| 30 | `C[C@@H]1CCCCO[C@H](CN(C)Cc2ccc(C(F)(F)F)cc2)[C@H](C)CN([C@H](C)CO)C(=O)c2cc(NC(=O)c3ccncc3)ccc2O1` | -65.26 |
| 31 | `CC(C)NC(=O)Nc1ccc2c(c1)CC(=O)N([C@H](C)CO)C[C@@H](C)[C@H](CN(C)Cc1ccccc1)O2` | -15.49 |
| 32 | `C[C@@H]1CCCCO[C@H](CN(C)S(=O)(=O)c2ccccc2)[C@H](C)CN([C@H](C)CO)C(=O)c2cc(NS(=O)(=O)c3ccc(Cl)cc3)ccc2O1` | -26.79 |
| 33 | `N#Cc1cccc(-c2ccc3c(c2)[C@H]2[C@H](CCN2C(=O)c2ccc4c(c2)OCO4)[C@H](CO)N3)c1` | -23.13 |
| 34 | `COc1cccc(-c2ccc([C@H]3[C@@H](CO)N4CCCCN(C(=O)c5ccc(F)cc5)C[C@@H]34)cc2)c1` | -28.76 |
| 35 | `C[C@H]1CCCCO[C@@H](CN(C)C)[C@@H](C)CN([C@@H](C)CO)C(=O)c2cc(NC(=O)Nc3cccc4ccccc34)ccc2O1` | -25.43 |
| 36 | `COCC(=O)N1CCCCN2[C@H](C1)[C@H](c1ccc(C#Cc3ccccc3)cc1)[C@@H]2CO` | -72.01 |
| 37 | `O=C(C[C@H]1CC[C@H]2[C@@H](COC[C@@H](O)CN2CCc2ccccc2)O1)NCc1ccc(Oc2ccccc2)cc1` | -56.45 |
| 38 | `C/C=C/c1ccc2c(c1)O[C@@H](CN(C)Cc1ccc(F)cc1)[C@@H](C)CN([C@H](C)CO)S2(=O)=O` | -42.03 |
| 39 | `CCCC#Cc1ccc2c(c1)O[C@H](CN(C)C(=O)C1CC1)[C@H](C)CN([C@@H](C)CO)S2(=O)=O` | -20.65 |
| 40 | `NC(=O)[C@H]1[C@@H]2C(=O)O[C@@H](c3ccccc3)[C@@H](c3ccccc3)N2[C@@H](c2ccccc2OCCO)[C@]12C(=O)Nc1ccc(C#CC3(O)CCCCCC3)cc12` | -30.38 |
| 41 | `COc1ccc(S(=O)(=O)N(C)C[C@@H]2Oc3ncc(/C=C/c4ccccc4)cc3C(=O)N([C@@H](C)CO)C[C@@H]2C)cc1` | -37.12 |
| 42 | `C[C@@H]1CN([C@H](C)CO)C(=O)c2ccccc2-c2ccccc2CO[C@@H]1CN(C)C(=O)Nc1ccc(-c2ccccc2)cc1` | -42.55 |
| 43 | `O=C(C1CCCC1)N1C[C@H]2[C@@H](c3ccccc31)[C@H](CO)N2C(=O)Cc1ccccn1` | -13.78 |

3 of the entries, repeated:

COc1ccc(S(=O)(=O)Nc2ccc3c(c2)C(=O)N([C@@H](C)CO)C[C@@H](C)[C@@H](CN(C)Cc2ccc(Cl)c(Cl)c2)OCCCC[C@@H](C)O3)cc1 gave activity change (Venus) -68.19%.
Cc1noc(C)c1S(=O)(=O)N(C)C[C@@H]1OCCCC[C@@H](C)Oc2ccc(NC(=O)NC3CCCCC3)cc2C(=O)N([C@H](C)CO)C[C@H]1C gave activity change (Venus) -33.63%.
C[C@@H]1CCCCO[C@H](CN(C)S(=O)(=O)c2ccccc2)[C@H](C)CN([C@H](C)CO)C(=O)c2cc(NS(=O)(=O)c3ccc(Cl)cc3)ccc2O1 gave activity change (Venus) -26.79%.

From PubChem BioAssay record AID1053133 (Broad Institute, 2014).